Results are given in words; binding and its absence hold for the method and conditions named. In cells and extracts the contact can be indirect. Some entries that bind do so weakly or less than the wild type. Where a sequence is shown, tags or fusion partners need not be part of it.
T1: 6-phosphogluconate dehydrogenase (6PGD), Flag-tagged (mouse) (UniProt Q9DCD0)
T1 sequence: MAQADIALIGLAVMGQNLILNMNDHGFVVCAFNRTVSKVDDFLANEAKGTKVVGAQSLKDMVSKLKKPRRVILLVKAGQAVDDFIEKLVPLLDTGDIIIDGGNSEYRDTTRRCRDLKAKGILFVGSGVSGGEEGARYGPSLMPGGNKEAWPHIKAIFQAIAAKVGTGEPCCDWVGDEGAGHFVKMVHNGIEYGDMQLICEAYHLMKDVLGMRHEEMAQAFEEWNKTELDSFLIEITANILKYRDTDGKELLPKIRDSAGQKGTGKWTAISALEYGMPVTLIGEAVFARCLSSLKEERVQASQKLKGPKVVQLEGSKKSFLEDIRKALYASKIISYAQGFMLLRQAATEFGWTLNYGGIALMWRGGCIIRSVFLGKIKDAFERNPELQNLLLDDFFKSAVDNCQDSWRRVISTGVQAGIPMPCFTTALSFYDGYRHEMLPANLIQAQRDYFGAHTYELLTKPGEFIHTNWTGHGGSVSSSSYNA

Amino acid sequences for entries named in this document (tags omitted).
UniProt P40646: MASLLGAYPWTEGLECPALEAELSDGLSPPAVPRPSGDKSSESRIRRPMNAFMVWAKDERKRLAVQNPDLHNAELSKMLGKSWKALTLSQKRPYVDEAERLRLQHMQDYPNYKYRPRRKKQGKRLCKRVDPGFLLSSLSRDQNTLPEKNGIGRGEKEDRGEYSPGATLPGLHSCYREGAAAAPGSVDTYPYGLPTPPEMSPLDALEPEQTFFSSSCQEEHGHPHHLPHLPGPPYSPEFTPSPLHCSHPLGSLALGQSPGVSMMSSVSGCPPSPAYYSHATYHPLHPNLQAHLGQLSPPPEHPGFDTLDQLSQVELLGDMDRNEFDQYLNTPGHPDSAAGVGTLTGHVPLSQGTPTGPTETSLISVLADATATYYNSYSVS

T2: Histone deacetylase 6, V5-tagged (mouse) (UniProt Q9Z2V5)
T2 sequence: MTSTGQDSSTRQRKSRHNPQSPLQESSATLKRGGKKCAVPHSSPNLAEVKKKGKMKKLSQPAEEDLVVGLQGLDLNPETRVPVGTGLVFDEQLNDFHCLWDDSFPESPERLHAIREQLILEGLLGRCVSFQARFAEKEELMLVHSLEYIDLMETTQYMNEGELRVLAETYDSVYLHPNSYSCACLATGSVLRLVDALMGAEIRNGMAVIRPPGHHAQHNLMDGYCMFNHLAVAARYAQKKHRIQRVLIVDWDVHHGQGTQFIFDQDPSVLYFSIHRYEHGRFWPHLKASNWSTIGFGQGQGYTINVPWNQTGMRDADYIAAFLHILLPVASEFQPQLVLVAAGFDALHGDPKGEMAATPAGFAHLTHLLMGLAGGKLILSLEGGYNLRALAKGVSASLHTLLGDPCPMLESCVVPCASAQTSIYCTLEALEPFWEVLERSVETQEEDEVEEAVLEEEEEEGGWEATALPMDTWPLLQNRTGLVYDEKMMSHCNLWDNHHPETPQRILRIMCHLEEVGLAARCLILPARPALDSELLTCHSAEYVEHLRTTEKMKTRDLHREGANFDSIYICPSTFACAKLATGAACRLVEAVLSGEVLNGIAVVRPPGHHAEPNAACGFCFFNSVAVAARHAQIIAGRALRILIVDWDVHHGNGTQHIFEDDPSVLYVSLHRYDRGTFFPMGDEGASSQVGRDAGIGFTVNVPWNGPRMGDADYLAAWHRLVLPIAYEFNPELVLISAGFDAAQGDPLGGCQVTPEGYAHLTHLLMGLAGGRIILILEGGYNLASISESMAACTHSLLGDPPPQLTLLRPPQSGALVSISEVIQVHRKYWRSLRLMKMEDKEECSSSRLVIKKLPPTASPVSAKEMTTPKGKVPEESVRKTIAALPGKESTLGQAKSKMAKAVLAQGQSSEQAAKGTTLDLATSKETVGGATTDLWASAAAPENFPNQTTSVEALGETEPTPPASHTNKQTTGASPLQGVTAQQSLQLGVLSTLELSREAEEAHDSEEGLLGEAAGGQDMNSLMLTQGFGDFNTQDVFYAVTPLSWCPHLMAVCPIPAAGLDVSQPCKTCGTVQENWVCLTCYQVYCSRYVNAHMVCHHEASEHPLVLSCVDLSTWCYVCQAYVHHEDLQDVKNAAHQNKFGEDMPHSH


What was measured:
[1] = molecular target: T1, 6-phosphogluconate dehydrogenase (6PGD), Flag-tagged (mouse); experiment: co-IP; HEK293 cells co-transfected 1:1 (6PGD:HDAC or SOX7) for 24 h; lysed in RIPA or mild lysis buffer; lysates immunoprecipitated with anti-Flag (6PGD as bait) and Dynabeads Protein G; immunoblot with anti-V5 and anti-Flag
[2] = molecular target: T1, 6-phosphogluconate dehydrogenase (6PGD), Flag-tagged (mouse); experiment: cross-linking; lysates of transfected HEK293 cells (50 mM HEPES, 150 mM NaCl, 0.5% Triton X-100) incubated with 0.025% glutaraldehyde for 15 min at room temperature, quenched with 50 mM Tris-HCl; immunoblot
[3] = molecular target: T2, Histone deacetylase 6, V5-tagged (mouse); experiment: co-IP; HEK293 cells co-transfected 1:1 (6PGD:HDAC) for 24 h; lysed in RIPA or mild lysis buffer; lysates immunoprecipitated with anti-V5 (HDAC as bait) and Dynabeads Protein G; immunoblot with anti-Flag and anti-V5

| binding [1] | binding [2] | binding [3] | Molecule |
| --- | --- | --- | --- |
| no binding |  |  | SOX7, V5-tagged (unrelated control protein) (from UniProt P40646 1-380) |
|  | binds | no binding | 6-phosphogluconate dehydrogenase (6PGD), Flag-tagged (enzyme, mouse, UniProt Q9DCD0 1-483, looked up, mouse 6-phosphogluconate dehydrogenase (6PGD); A shorter ~40 kDa form (6PGD-s), also detected by anti-Flag, arises in the same cells; also called full-length 6PGD; source: HEK293, transfected (pCMV-based construct), in lysate) MAQADIALIGLAVMGQNLILNMNDHGFVVCAFNRTVSKVDDFLANEAKGTKVVGAQSLKDMVSKLKKPRRVILLVKAGQAVDDFIEKLVPLLDTGDIIIDGGNSEYRDTTRRCRDLKAKGILFVGSGVSGGEEGARYGPSLMPGGNKEAWPHIKAIFQAIAAKVGTGEPCCDWVGDEGAGHFVKMVHNGIEYGDMQLICEAYHLMKDVLGMRHEEMAQAFEEWNKTELDSFLIEITANILKYRDTDGKELLPKIRDSAGQKGTGKWTAISALEYGMPVTLIGEAVFARCLSSLKEERVQASQKLKGPKVVQLEGSKKSFLEDIRKALYASKIISYAQGFMLLRQAATEFGWTLNYGGIALMWRGGCIIRSVFLGKIKDAFERNPELQNLLLDDFFKSAVDNCQDSWRRVISTGVQAGIPMPCFTTALSFYDGYRHEMLPANLIQAQRDYFGAHTYELLTKPGEFIHTNWTGHGGSVSSSSYNA |

From publication PMC11555707, “Histone deacetylase 7 activates 6-phosphogluconate dehydrogenase via an enzyme-independent mechanism that involves the N-terminal protein-protein interaction domain” (Biochemical Journal, 2024)
